# Data published in the supplement of paper PMC3741180, “A Novel High Throughput Biochemical Assay to Evaluate the HuR Protein-RNA Complex Formation” (PLoS ONE, 2013).
# By UniProt entry, the sequences of proteins in these tests, tags left out.
# UniProt Q15717, whole entry: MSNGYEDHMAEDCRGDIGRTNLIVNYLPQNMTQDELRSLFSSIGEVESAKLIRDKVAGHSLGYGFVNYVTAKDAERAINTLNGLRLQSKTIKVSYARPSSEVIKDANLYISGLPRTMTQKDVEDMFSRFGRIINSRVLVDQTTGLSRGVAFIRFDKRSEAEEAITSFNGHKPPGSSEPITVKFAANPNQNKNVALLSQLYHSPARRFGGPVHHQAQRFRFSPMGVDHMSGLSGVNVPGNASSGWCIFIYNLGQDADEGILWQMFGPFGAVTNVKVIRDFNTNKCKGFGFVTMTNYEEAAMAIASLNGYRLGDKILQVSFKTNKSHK
# Some of the results follow. Single values are uncertain here, since repeats match poorly.
# Target: HuR (ELAVL1) - TNFalpha ARE RNA complex (UniProt Q15717)
# Experiment: AlphaScreen HuR-RNA complex signal Z-score relative to positive (Bi-TNF, DMSO) controls (Z-score (SD units of positive control)); higher = more complex signal
# Details: screen stage: primary screen; compound concentration: 25 nM
row,SMILES,AlphaScreen HuR-RNA complex signal Z-score
1,O=C(OCc1ccccc1)c1ccccc1,0.174
2,N=C(N)N/N=C/c1c(Cl)cccc1Cl,-0.836
3,OC(CCN1CCCCC1)(c1ccccc1)C1CCCCC1 (centres undefined),-1.07
4,Cc1cc(O)c(C=O)c2c1C(=O)Oc1c(COC(=O)/C=C/C(=O)O)c(O)c(C(=O)O)c(C)c1O2,-0.159
5,CN(C)CCOC(=O)COc1ccc(Cl)cc1,2.79
6,C[C@H]1C[C@@H]2[C@H]([C@@H](O)C[C@@]3(C)[C@H]2CC[C@]3(O)C(=O)COC(=O)CCC(=O)O)[C@@]2(C)C=CC(=O)C=C12,1.84
7,Nc1cc(-c2ccncc2)c[nH]c1=O,2.39
8,CC(N)C12CC3CC(CC(C3)C1)C2 (centres undefined),0.285
9,COC(=O)C(N)CS (centres undefined),2
10,O=C(CC(=O)c1ccccc1)c1ccccc1,1.49
11,Cn1c([N+](=O)[O-])cnc1COC(N)=O,1.2
12,NC(N)=O,-1.16
13,CN(C)[C@@H]1C(O)=C(C(N)=O)C(=O)[C@@]2(O)C(O)=C3C(=O)c4c(O)ccc(Cl)c4[C@@H](O)[C@H]3C[C@@H]12,-3.01
14,CC(Oc1ccccc1)C(=O)N[C@@H]1C(=O)N2[C@@H]1SC(C)(C)[C@@H]2C(=O)O (some centres undefined),-0.956
15,C[C@@H]1CC[C@@]2(OC1)O[C@H]1C[C@H]3[C@@H]4CC[C@@H]5C[C@@H](O)CC[C@]5(C)[C@H]4CC[C@]3(C)[C@H]1[C@@H]2C,1.5
16,N[C@@H](C(=O)N[C@@H]1C(=O)N2C(C(=O)O)=C(Cl)CS[C@H]12)c1ccccc1,-1.35
17,OCC(O)C(O)C(O)C(O)C(O)CO (centres undefined),1.73
18,COc1cc(O)c(C)c(O)c1,0.537
19,C[C@H](CCC(=O)O)[C@H]1CC[C@H]2[C@@H]3CC[C@@H]4CCCC[C@]4(C)[C@H]3CC[C@]12C,1.76
20,N=C(N)NC(=O)c1nc(Cl)c(N2CCCCCC2)nc1N,1.74
21,CCOC(=O)[C@H](CCc1ccccc1)N[C@@H](C)C(=O)N1CCC[C@H]1C(=O)O,1.48
22,CC(=O)N[C@@H](Cc1ccccc1)C(=O)O,1.15
23,Cn1nnnc1SCC1=C(C(=O)O)N2C(=O)[C@@H](NC(=O)[C@H](OC=O)c3ccccc3)[C@H]2SC1,-0.12
24,CN(C)CCCO[C@@H]1[C@H]2OC(C)(C)O[C@H]2O[C@@H]1[C@H](O)CO,-3.16

# Shown bar-delimited: part of the list above.
row | SMILES | AlphaScreen HuR-RNA complex signal Z-score
13 | CN(C)[C@@H]1C(O)=C(C(N)=O)C(=O)[C@@]2(O)C(O)=C3C(=O)c4c(O)ccc(Cl)c4[C@@H](O)[C@H]3C[C@@H]12 | -3.01
14 | CC(Oc1ccccc1)C(=O)N[C@@H]1C(=O)N2[C@@H]1SC(C)(C)[C@@H]2C(=O)O (some centres undefined) | -0.956
15 | C[C@@H]1CC[C@@]2(OC1)O[C@H]1C[C@H]3[C@@H]4CC[C@@H]5C[C@@H](O)CC[C@]5(C)[C@H]4CC[C@]3(C)[C@H]1[C@@H]2C | 1.5

# Individual results from the entries so far:
# Entry for `CN(C)CCOC(=O)COc1ccc(Cl)cc1` under AlphaScreen HuR-RNA complex signal Z-score: 2.79
# Entry for `OC(CCN1CCCCC1)(c1ccccc1)C1CCCCC1` (centres undefined) under AlphaScreen HuR-RNA complex signal Z-score: -1.07

# More compounds follow.

row,SMILES,AlphaScreen HuR-RNA complex signal Z-score
1,C[C@]12CC[C@@H]3c4ccc(O)cc4CC[C@H]3[C@@H]1C[C@@H](O)[C@@H]2O,-1.97
2,CCOc1ccc(C(=O)c2ccc(O)c(O)c2O)cc1,2.31
3,CCCCC(=O)O[C@]1(C(=O)CO)CC[C@H]2[C@@H]3CCC4=CC(=O)CC[C@]4(C)[C@H]3[C@@H](O)C[C@@]21C,1.65
4,CCc1cccc2c3c([nH]c12)C(CC)(CC(=O)O)OCC3 (centres undefined),0.518
5,Cc1noc(NS(=O)(=O)c2ccc(N)cc2)c1C,24.3
6,CC1=C(CC(=O)O)c2cc(F)ccc2/C1=C\c1ccc([S+](C)[O-])cc1 (centres undefined),9.61
7,Cc1cc(-n2c(=O)[nH]c(=O)n(C)c2=O)ccc1Oc1ccc(SC(F)(F)F)cc1,1.85
8,CC(C)CCC[C@@H](C)[C@H]1CC[C@H]2[C@@H]3C(=O)C=C4C[C@@H](O)CC[C@]4(C)[C@H]3CC[C@]12C,-1.78
9,Cc1ccccc1N1C(=O)c2cc(S(N)(=O)=O)c(Cl)cc2NC1C (centres undefined),-0.61
10,CO[C@H]1[C@H](O)[C@@H](O)[C@H](O)[C@H](O)[C@H]1O,1.19
11,COc1ccc(-c2coc3c(OC)c(OC)cc(O)c3c2=O)cc1,1.99
12,COc1ccc2c(c1)OCC(Cc1ccc(OC)c(OC(C)=O)c1)C2=O (centres undefined),1.74
13,OCCOCCN1CCN(C(c2ccccc2)c2ccc(Cl)cc2)CC1 (centres undefined),-1.54
14,CC(CCC(=O)O)[C@H]1CCC2C3CC[C@@H]4CC(=O)CC[C@]4(C)C3C=C[C@@]21C (some centres undefined),1.51
15,CC(=O)O[C@H]1C[C@@H](OC(C)=O)C(C)(C)C2C[C@@H](O)[C@]3(C)C(CC[C@@]4(C)[C@H](c5ccoc5)OC(=O)[C@H]5O[C@]543)[C@]21C (some centres undefined),-0.983
16,O=C(O)c1cc(O)c(=O)c2c(O)c(O)ccc2c1,2.7
17,CC(=O)Nc1ccc(O)cc1,0.315
18,CC(=O)Oc1c(C)c(C)c2c(c1C)CCC(C)(CCCC(C)CCCC(C)CCCC(C)C)O2 (stereo not drawn) [alpha-TOCHOPHERYL ACETATE],0.378
19,C=CCSCC(N)C(=O)O (centres undefined),2.56
20,"COC(=O)[C@@H]1OC(=O)C2OC23[C@@]1(C)CCC1[C@]2(C)C(C[C@H](O)[C@]13C)C(C)(C)[C@H](OC(C)=O)C[C@@H]2OC(C)=O (stereo partly drawn) [7beta-HYDROXY-7-DESACETOXYKHIVORINIC ACID, METHYL ESTER]",2.13
21,COC(=O)C(C)c1ccc(C(=O)c2cccs2)cc1 (centres undefined),2.13
22,COc1ccc2[nH]c([S+]([O-])Cc3ncc(C)c(OC)c3C)nc2c1 (centres undefined),1.15
23,CCCCC(CC)CN=C(N)N=C(N)NCCCCCCNC(N)=NC(N)=NCC(CC)CCCC (centres undefined),2.78
24,CN(C)[C@@H]1C(O)=C(C(N)=O)C(=O)[C@@]2(O)C(O)=C3C(=O)c4c(O)ccc(Cl)c4[C@@](C)(O)[C@H]3C[C@@H]12,-3.62

row,SMILES,AlphaScreen HuR-RNA complex signal Z-score
1,O=C1OC2(c3ccc(O)cc3Oc3cc(O)ccc32)c2ccccc21,0.868
2,CC(=O)OCC1=C(C(=O)O)N2C(=O)[C@@H](NC(=O)CSc3ccncc3)[C@H]2SC1,-3.52
3,C[C@]12CC[C@@H]3c4ccc(O)cc4CC[C@H]3[C@@H]1CCC2=O,-3.2
4,CC(=O)OCC(=O)[C@@]1(O)CC[C@H]2[C@@H]3C[C@H](C)C4=CC(=O)C=C[C@]4(C)[C@H]3[C@@H](O)C[C@@]21C [6alpha-METHYLPREDNISOLONE ACETATE],1.54
5,COc1cnc(NS(=O)(=O)c2ccc(N)cc2)nc1,1.16
6,O=C(O)CCC(=O)Nc1ccc(S(=O)(=O)Nc2nccs2)cc1,1.37
7,Cc1cccc(CN2CCN(C(c3ccccc3)c3ccc(Cl)cc3)CC2)c1 (centres undefined),-0.578
8,O=c1c2cc(O)c(O)cc2oc2cc(O)c([C@@H]3O[C@H](CO)[C@@H](O)[C@H](O)[C@H]3O)c(O)c12,0.338
9,C=C1C[C@]23C[C@@]1(O)CC[C@H]2[C@@]12C=C[C@H](O)[C@@](C)(C(=O)O1)[C@H]2[C@@H]3C(=O)O,1.06
10,COc1ccc(-c2cc(=O)c3c(O)cc(O[C@@H]4O[C@H](CO[C@@H]5O[C@@H](C)[C@H](O)[C@@H](O)[C@H]5O)[C@@H](O)[C@H](O)[C@H]4O)cc3o2)cc1O,0.574
11,"COC(=O)C[C@H]1C(C)(C)[C@@H](O)[C@@H]2CC3=C4CC(O)O[C@@H](c5ccoc5)[C@]4(C)CCC3[C@@]1(C)C2=O (stereo partly drawn) [3,16-DIDEOXYMEXICANOLIDE-3beta-DIOL]",0.289
12,NC(=O)NC(=O)Cc1ccccc1,8.06
13,COc1cc(C)c(C(=O)Oc2cc(C)c(C(=O)O)c(O)c2C)c(O)c1C=O,0.636
14,c1ccc2[nH]c(-c3cscn3)nc2c1,18.9
15,OC[C@@H](O)[C@@H](O[C@@H]1O[C@H](CO)[C@H](O)[C@H](O)[C@H]1O)[C@H](O)[C@@H](O)CO,-4.58
16,CN1[C@@H](CC(=O)c2ccccc2)CCC[C@H]1C[C@H](O)c1ccccc1,1.4
17,C=C1C(=O)O[C@@H]2C[C@@]3(C)CCC[C@H](C)C3=C[C@H]12,0.57
18,COc1ccc(C(=O)/C=C/c2ccccc2)cc1,0.587
19,CNCCC(Oc1ccc(C(F)(F)F)cc1)c1ccccc1 (centres undefined),1.37
20,CCCCCCCCCCCCC[N+](C)(C)Cc1ccccc1,0.476
21,O=S(=O)(O)CCS,1.73
22,CCn1cc(C(=O)O)c(=O)c2cnc(N3CCCC3)nc21,-3.88
23,CC(C)(C)NC[C@H](O)c1ccc(O)c(CO)c1,3.1
24,CCCCNC(=O)NS(=O)(=O)c1ccc(C)cc1,-0.675

row,SMILES,AlphaScreen HuR-RNA complex signal Z-score
1,O=C(O)c1cc(-c2ccc(F)cc2F)ccc1O,-6.16
2,COc1ccc(-c2oc3ccccc3c(=O)c2O)cc1OC,1.94
3,CC(=O)[C@H]1CC[C@H]2[C@@H]3C[C@H](C)C4=CC(=O)CC[C@]4(C)[C@H]3[C@@H](O)C[C@]12C,2.03
4,COC(=O)c1c(C)cc(O)cc1O,1.04
5,CC1(C)NC(=O)N(c2ccc([N+](=O)[O-])c(C(F)(F)F)c2)C1=O,1.2
6,CCCCCCc1ccc(O)cc1O,-2.48
7,COC(=O)[C@@H]1[C@H]2C[C@H]3c4[nH]c5ccccc5c4CCN3C[C@@H]2CC[C@@H]1O,-0.321
8,C=C(C)[C@@H]1CC=C(C(=O)O)CC1,-0.246
9,C[C@]12C=CC(=O)C=C1CC[C@@H]1[C@@H]2[C@@H](O)C[C@@]2(C)[C@H]1CC[C@]2(O)C(=O)COC(=O)CCC(=O)O,1.12
10,COC(=O)C[C@H]1C(C)(C)C(=O)[C@@H]2CC3=C4CC(=O)O[C@@H](c5ccoc5)[C@]4(C)CC[C@@H]3[C@@]1(C)C2=O,1.78
11,COc1ccc(C(=O)CC(=O)O)c2c1C=CC(C)(C)O2,0.486
12,CC(C)=CCC[C@](C)(O)C1CC=C(C)CC1 (some centres undefined),2.37
13,Sc1nc2ccccc2s1,2.4
14,COc1ccc2cc1Oc1ccc(cc1)C[C@H]1c3cc(c(OC)cc3CCN1C)Oc1c(OC)c(OC)cc3c1[C@H](C2)N(C)CC3,-3.07
15,CCS(=O)(=O)CCn1c([N+](=O)[O-])cnc1C,0.34
16,COc1cc(OC)c2c(c1)OC(c1ccccc1)CC2=O (centres undefined),0.201
17,CCCCOc1cc(C(=O)NCCN(CC)CC)c2ccccc2n1,0.709
18,C[C@@]12C[C@@]3(O)O[C@@H](O1)[C@]1(COC(=O)c4ccccc4)[C@H]3C[C@@]12O[C@@H]1O[C@H](CO)[C@@H](O)[C@H](O)[C@H]1O,-0.295
19,O=[N+]([O-])c1cccc2c(Br)[nH]nc12,2.52
20,NC1(C(=O)O)CCC1,0.873
21,N=C(N)NC(=O)c1nc(Cl)c(N)nc1N,0.31
22,CC(=O)O[C@H]1CC[C@]2(C)C(C[C@@H](OC(C)=O)[C@]3(C)C4=CC(=O)O[C@H](c5ccoc5)[C@@]4(C)CCC23)C1(C)C (stereo partly drawn) [3-DEOXO-3beta-ACETOXYDEOXYDIHYDROGEDUNIN],1.28
